This is one part of the list.
Legend:
Test in all cases: protein microarray (ProtoArray v5.0), streptavidin-Alexa Fluor 647
Conditions in all cases: 3'-biotin; 20 mM Tris (pH 7.5), 5 mM MgCl2, 100 mM KCl, 0.1% Tween-20, A/T-rich and random oligonucleotide blockers; temperature not stated; high values mean tight binding
[1] = test system: Metallophosphoesterase 1 (human)
[2] = test system: Metallothionein-1G (human)
Metaxin-2 (human) = test system: Metaxin-2 (human)
[3] = test system: Mevalonate kinase (human)
[4] = test system: Microfibrillar-associated protein 5 (human)
[5] = test system: Mirror-image polydactyly gene 1 protein (human)
[6] = test system: Mitochondrial 18 kDa protein (human)
[7] = test system: Mitochondrial chaperone BCS1 (human)
[8] = test system: Mitochondrial coiled-coil domain protein 1 (human)
[9] = test system: Mitogen-activated protein kinase 10 (human)

Sequence: GGGAGGCTGAGGCAGG [G4-1 biotinylated (PQS2)]
- binding signal [1]: -0.308 z-score
- binding signal [2]: -0.34 z-score
- binding signal (Metaxin-2 (human)): -0.282 z-score
- binding signal [3]: -0.284 z-score
- binding signal [4]: -0.312 z-score
- binding signal [5]: -0.332 z-score
- binding signal [6]: -0.312 z-score
- binding signal [7]: -0.343 z-score
- binding signal [8]: -0.354 z-score
- binding signal [9]: -0.354 z-score

Source: paper PMC5996148
